Assay results reported in patent US20080242542A1, “INDANILINE DYE, THERMAL TRANSFER RECORDING INK SHEET, THERMAL TRANSFER RECORDING METHOD, COLOR TONER, INKJET INK, AND COLOR FILTER” (FUJIFILM Corporation, priority 2007, published 2008).
Some compounds share one wording; it may come from a single statement.

Assay: Transferability: status A reflection density of solid image
Settings: status A reflection density of solid density (100% dot density) image

Q: With `CCN(CC)c1ccc(N=C2C=C(NC(C)=O)C(=O)C(Cl)=C2C)cc1` [Comparative Dye 1] as the compound, how does the Transferability read?
A: Its Transferability is “B (those having from 1.6 to less than 1.8 are good, B)”.

Q: For `CCN(CC)c1ccc(N=C2C=C(NC(C)=O)C(=O)C(Cl)=C2C)c(C)c1` [Comparative Dye 4], which Transferability is on record?
A: Its Transferability is “A (Those having a reflection density of at least 1.8 are excellent, A)”.

Q: Which Transferability does the source give for `CCN(CC)c1ccc(N=C2C=C(NC(=O)c3ccccc3)C(=O)C(Cl)=C2C)c(C)c1` [Comparative Dye 5] here?
A: Its Transferability is “A (Those having a reflection density of at least 1.8 are excellent, A)”.

Q: Which Transferability does the source give for `CCC(=O)NC1=CC(=Nc2ccc(N(CC)CC)cc2)C(C)=C(Cl)C1=O` [Compound (1)] here?
A: The Transferability was “A (Those having a reflection density of at least 1.8 are excellent, A)”.

Q: For `CCN(CC)c1ccc(N=C2C=C(NC(C)=O)C(=O)C=C2C)c(C)c1` [Comparative Dye 3], which Transferability is on record?
A: The Transferability was “A (Those having a reflection density of at least 1.8 are excellent, A)”.
